Source: paper PMC9223101, “Transcription Regulation of Cell Cycle Regulatory Genes Mediated by NtrX to Affect Sinorhizobium meliloti Cell Division”
Construct, isoform or probe ends are uncertain for at least one entry.

Target: NtrX, phosphorylated (His-NtrX~P) (Sinorhizobium meliloti 1021) (UniProt Q92Q87)
Assay: EMSA
Conditions: acetyl phosphate-treated NtrX, 5 mM Mg2+, 20 uL: 3, 6, 15 ng NtrX, 2 nM probe (2 or 40 nM in Methods), 1x binding buffer, 5 mM MgCl2, 50 ng/uL poly(dI-dC), 0.05% NP-40, 1% glycerol, 30 min at 28 C, recombinant protein, protein details: His (pET28b), label: biotin

Row | Sequence | binding result | further results
1 | CCAGCTAAGCAAGAACGCAAAAAACAAAACCCTTGATTCAACAGGGATTCTCGCCGGACTCGGGGAGCGGGATGC (double strand) [dnaA promoter probe (PdnaA)] |  | binding result (one complex): binds
2 | GATTTTTTCGCGCTTCGGAATCGGTATCCGCAAAGCGCCTGCAAACCTTGGTTTTGTTGACATCGC (double strand) [gcrA promoter probe] | binds | 
3 | GCCTCCAAATCAGGCAACGACTGGATCCGTATCGCGTAAGGATGCCACGACAACCTTGGGCGGCGGAAAAGGGGAAGA (double strand) [ctrA promoter probe] | binds | 
4 | GCGCTTGACTGAGATGCAACACCGTTGCATTTTCGCCACAATGCGTTGCTTGAACCTCGCATAAGCGTCGATTCGCCGGC (double strand) [ntrY promoter probe] |  | binding result (two complexes): binds
